Measured values: patent publication US20080050380A1
No constants are given. Whether binding was seen depends on the method and setting. Some results given as binding are weak or reduced against the parent protein; the word gives no strength.

Protein sequences, listed by entry. Tags and fused reporters are not part of them. Lines headed by an entry give the natural chain unless they say otherwise; changes in a name come on top. Residues count along the entry.
UniProt P08121, residues 155-1219: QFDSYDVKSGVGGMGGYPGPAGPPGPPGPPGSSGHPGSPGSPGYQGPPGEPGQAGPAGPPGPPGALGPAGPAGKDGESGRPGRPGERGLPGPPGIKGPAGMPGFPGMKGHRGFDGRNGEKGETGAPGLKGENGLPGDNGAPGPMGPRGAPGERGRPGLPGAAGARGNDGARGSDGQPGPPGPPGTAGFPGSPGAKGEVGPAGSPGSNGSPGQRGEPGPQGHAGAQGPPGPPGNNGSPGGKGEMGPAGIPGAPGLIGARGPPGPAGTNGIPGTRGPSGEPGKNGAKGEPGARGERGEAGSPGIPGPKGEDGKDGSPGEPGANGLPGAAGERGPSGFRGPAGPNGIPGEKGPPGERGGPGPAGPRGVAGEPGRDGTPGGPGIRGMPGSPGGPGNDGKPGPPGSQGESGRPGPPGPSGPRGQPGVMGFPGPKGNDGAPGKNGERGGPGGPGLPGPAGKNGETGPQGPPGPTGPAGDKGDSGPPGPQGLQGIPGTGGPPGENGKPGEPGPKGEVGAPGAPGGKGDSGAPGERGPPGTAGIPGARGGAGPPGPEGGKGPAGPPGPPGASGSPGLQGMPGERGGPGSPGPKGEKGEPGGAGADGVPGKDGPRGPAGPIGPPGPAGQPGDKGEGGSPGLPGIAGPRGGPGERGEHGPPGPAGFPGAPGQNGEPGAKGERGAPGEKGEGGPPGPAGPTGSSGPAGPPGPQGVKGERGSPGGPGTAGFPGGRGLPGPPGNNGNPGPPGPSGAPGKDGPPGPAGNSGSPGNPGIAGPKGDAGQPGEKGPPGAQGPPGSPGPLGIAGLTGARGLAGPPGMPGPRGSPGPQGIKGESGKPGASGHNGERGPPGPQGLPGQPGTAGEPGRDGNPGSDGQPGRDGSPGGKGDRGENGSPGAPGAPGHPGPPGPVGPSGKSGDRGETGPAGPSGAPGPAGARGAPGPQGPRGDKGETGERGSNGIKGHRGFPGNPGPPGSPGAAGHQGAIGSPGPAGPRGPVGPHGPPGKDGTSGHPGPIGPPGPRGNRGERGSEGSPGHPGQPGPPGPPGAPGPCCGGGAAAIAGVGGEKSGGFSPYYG
UniProt Q9HCN6: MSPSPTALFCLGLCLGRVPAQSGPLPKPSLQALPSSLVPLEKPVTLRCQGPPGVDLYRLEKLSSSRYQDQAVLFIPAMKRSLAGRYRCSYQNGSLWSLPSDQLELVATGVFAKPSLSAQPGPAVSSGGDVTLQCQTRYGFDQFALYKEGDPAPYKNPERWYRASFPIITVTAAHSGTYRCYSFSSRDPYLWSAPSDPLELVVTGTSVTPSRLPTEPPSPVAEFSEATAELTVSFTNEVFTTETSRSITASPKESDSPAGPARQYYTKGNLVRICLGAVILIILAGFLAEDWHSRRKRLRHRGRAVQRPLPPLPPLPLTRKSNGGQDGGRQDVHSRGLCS

How the values were obtained:
[1] = biological target: mouse collagen on descending aorta sections (co-localises with collagen type III) (mouse) (UniProt P08121); test: immunofluorescence on mouse descending aorta sections
[2] = biological target: mouse collagen on descending aorta sections (co-localises with collagen type III) (mouse) (UniProt P08121); test: immunofluorescence on mouse aorta sections
[3] = biological target: mouse collagen on descending aorta sections (co-localises with collagen type III) (mouse) (UniProt P08121); test: immunofluorescence on mouse descending aorta sections, 0.1 µg/ml GPVI-Fc

binding [1]: binds
binding [2]: binds
binding [3]: binds
Substance: soluble human GPVI-Fc (the extracellular domain of GPVI fused to Fc) (from UniProt Q9HCN6 21-269) (Fc fusion)
